These are yes or no findings as the source states them, for the method shown. Some binding calls cover weakened binding; strength is not graded here. Where a sequence is shown, tags or fusion partners need not be part of it.
Molecular target: integrin captured with the TS2/4 antibody (UniProt P20701)
Assay: GST protein (10 µg/ml) on integrin immunocaptured with TS2/4, Eu-labelled anti-GST detection

The chains behind the UniProt entries cited, without tags or fusion partners. Where a name states a change or a piece, a line headed by the entry shows the natural chain unless it says otherwise.
UniProt P20701: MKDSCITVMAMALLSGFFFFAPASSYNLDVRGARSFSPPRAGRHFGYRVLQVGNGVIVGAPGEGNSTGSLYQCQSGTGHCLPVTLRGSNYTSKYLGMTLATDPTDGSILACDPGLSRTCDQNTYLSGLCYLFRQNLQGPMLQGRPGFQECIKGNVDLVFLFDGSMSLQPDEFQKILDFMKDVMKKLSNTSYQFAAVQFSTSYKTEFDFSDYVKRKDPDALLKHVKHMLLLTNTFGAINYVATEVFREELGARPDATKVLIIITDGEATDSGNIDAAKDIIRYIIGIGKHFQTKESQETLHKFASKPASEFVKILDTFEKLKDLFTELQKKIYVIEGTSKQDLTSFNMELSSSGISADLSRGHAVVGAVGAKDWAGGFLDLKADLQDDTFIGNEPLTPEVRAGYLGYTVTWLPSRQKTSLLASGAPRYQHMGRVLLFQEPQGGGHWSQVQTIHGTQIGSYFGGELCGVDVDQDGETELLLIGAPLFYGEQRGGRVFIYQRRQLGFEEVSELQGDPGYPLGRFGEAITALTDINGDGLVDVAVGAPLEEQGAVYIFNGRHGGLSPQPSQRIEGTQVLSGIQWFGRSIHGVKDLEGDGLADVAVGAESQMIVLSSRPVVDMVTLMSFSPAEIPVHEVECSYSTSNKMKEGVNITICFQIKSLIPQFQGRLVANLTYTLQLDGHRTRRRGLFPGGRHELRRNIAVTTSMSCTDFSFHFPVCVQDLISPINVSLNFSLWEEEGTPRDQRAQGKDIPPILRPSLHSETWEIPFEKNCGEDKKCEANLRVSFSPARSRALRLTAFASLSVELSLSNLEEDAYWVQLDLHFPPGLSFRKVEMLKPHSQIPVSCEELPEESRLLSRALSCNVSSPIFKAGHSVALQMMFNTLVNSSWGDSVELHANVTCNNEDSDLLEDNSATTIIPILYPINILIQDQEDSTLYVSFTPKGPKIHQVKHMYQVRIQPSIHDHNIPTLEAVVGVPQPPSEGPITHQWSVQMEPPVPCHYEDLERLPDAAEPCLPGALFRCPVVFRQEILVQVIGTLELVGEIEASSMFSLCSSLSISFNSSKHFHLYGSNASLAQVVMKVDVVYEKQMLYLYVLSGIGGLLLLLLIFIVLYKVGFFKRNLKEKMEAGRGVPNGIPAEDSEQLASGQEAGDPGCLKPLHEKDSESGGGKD

- binding: binds
Binder: CPCFLLGCC (peptide, not shown: a dimerising Fc or GST) [LLG-C4-GST fusion protein]
